Measured values published in article doi:10.1101/2023.12.03.569805.
No constants are given. Whether binding was seen depends on the method and setting. In cells and extracts the contact can be indirect. A yes stands for co-enrichment or nearness to the bait. Other partners may have been found. Sequences can lack the tags named with a protein.

Sequences of proteins named here, by UniProt entry; tags and fusion partners are left off.
UniProt Q92793: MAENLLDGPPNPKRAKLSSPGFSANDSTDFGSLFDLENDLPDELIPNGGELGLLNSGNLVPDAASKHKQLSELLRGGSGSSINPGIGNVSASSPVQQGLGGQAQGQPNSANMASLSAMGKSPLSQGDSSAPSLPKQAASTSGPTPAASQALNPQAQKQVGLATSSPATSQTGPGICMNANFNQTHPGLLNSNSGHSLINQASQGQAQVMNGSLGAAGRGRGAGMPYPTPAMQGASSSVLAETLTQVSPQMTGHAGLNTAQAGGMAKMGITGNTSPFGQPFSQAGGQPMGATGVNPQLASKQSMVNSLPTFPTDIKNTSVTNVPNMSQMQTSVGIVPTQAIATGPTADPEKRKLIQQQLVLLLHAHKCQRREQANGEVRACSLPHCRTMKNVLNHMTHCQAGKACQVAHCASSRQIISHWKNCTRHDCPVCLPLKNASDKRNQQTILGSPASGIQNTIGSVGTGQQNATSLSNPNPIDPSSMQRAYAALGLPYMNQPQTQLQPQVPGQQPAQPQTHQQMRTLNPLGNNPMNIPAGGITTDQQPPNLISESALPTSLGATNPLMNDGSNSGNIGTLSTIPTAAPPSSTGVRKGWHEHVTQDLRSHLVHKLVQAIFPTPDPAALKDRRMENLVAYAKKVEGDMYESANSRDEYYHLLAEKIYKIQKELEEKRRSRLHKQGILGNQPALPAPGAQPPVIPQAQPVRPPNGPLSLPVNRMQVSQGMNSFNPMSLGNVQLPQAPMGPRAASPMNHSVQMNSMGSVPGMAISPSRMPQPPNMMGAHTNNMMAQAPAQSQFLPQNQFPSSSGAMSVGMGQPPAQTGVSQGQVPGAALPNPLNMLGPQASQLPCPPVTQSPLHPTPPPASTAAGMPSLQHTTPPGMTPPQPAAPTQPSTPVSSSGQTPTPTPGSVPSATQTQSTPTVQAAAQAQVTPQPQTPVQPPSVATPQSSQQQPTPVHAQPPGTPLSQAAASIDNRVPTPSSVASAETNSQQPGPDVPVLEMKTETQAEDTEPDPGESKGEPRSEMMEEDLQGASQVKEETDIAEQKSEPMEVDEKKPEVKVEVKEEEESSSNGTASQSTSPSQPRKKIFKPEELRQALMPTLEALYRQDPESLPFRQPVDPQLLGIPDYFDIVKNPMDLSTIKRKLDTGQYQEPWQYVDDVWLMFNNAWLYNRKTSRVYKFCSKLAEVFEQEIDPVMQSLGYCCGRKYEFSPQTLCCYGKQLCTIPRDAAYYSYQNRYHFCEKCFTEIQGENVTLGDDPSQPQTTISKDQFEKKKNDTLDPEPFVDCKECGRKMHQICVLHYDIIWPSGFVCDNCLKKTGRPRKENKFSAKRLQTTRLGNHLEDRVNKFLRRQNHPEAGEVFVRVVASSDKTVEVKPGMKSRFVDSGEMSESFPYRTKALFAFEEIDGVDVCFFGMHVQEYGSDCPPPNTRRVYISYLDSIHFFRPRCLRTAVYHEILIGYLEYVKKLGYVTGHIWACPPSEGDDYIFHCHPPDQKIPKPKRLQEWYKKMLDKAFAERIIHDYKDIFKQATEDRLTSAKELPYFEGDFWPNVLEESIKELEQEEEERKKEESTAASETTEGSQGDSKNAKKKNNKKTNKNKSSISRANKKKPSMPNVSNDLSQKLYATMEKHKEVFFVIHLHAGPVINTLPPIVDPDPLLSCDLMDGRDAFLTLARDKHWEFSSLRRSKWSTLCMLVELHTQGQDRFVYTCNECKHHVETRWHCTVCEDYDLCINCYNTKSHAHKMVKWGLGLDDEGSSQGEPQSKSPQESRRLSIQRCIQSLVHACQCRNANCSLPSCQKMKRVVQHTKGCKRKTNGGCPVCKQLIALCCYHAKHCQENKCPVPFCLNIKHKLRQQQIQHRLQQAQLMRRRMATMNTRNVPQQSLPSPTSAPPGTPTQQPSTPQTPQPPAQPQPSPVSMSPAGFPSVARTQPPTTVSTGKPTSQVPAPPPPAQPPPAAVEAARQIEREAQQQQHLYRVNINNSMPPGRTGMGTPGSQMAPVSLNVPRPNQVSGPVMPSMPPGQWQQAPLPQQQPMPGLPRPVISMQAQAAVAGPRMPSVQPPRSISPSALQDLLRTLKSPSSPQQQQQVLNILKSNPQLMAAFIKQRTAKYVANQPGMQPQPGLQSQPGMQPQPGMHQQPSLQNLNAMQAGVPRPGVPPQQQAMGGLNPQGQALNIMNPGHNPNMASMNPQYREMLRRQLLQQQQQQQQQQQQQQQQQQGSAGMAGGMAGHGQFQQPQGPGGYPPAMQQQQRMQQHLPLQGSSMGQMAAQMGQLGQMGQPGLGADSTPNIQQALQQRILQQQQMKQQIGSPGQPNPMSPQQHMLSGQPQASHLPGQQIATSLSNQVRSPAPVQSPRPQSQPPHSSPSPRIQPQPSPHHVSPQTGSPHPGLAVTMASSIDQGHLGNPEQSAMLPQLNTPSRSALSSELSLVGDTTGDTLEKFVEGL

T1: FLAG-tagged DCAF7 (UniProt P61962)
T1 sequence: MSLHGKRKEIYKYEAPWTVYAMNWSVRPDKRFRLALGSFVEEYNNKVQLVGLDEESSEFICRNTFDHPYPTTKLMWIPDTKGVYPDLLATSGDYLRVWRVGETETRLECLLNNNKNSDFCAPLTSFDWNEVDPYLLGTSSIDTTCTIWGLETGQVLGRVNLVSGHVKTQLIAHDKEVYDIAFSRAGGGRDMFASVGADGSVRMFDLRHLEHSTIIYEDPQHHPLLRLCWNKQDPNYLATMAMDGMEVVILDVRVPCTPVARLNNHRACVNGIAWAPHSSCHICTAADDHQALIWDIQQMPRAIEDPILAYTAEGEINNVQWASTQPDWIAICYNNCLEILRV

B1: KIAA0232 (endogenous prey) (protein, UniProt Q92628 1-1395)
chain: MYPICTVVVDGLPSESSSSSYPGPVSVSEMSLLHALGPVQTWLGQELEKCGIDAMIYTRYVLSLLLHDSYDYDLQEQENDIFLGWEKGAYKKWGKSKKKCSDLTLEEMKKQAAVQCLRSASDESSGIETLVEELCSRLKDLQSKQEEKIHKKLEGSPSPEAELSPPAKDQVEMYYEAFPPLSEKPVCLQEIMTVWNKSKVCSYSSSSSSSTAPPASTDTSSPKDCNSESEVTKERSSEVPTTVHEKTQSKSKNEKENKFSNGTIEEKPALYKKQIRHKPEGKIRPRSWSSGSSEAGSSSSGNQGELKASMKYVKVRHKAREIRNKKGRNGQSRLSLKHGEKAERNIHTGSSSSSSSGSVKQLCKRGKRPLKEIGRKDPGSTEGKDLYMENRKDTEYKEEPLWYTEPIAEYFVPLSRKSKLETTYRNRQDTSDLTSEAVEELSESVHGLCISNNNLHKTYLAAGTFIDGHFVEMPAVINEDIDLTGTSLCSLPEDNKYLDDIHLSELTHFYEVDIDQSMLDPGASETMQGESRILNMIRQKSKENTDFEAECCIVLDGMELQGERAIWTDSTSSVGAEGLFLQDLGNLAQFWECCSSSSGDADGESFGGDSPVRLSPILDSTVLNSHLLAGNQELFSDINEGSGINSCFSVFEVQCSNSVLPFSFETLNLGNENTDSSANMLGKTQSRLLIWTKNSAFEENEHCSNLSTRTCSPWSHSEETRSDNETLNIQFEESTQFNAEDINYVVPRVSSNYVDEELLDFLQDETCQQNSRTLGEIPTLVFKKTSKLESVCGIQLEQKTENKNFETTQVCNESPHGDGYSSGVIKDIWTKMADTNSVATVEIERTDAELFSADVNNYCCCLDAEAELETLQEPDKAVRRSEYHLWEGQKESLEKRAFASSELSNVDGGDYTTPSKPWDVAQDKENTFILGGVYGELKTFNSDGEWAVVPPSHTKGSLLQCAASDVVTIAGTDVFMTPGNSFAPGHRQLWKPFVSFEQNDQPKSGENGLNKGFSFIFHEDLLGACGNFQVEDPGLEYSFSSFDLSNPFSQVLHVECSFEPEGIASFSPSFKPKSILCSDSDSEVFHPRICGVDRTQYRAIRISPRTHFRPISASELSPGGGSESEFESEKDEANIPIPSQVDIFEDPQADLKPLEEDAEKEGHYYGKSELESGKFLPRLKKSGMEKSAQTSLDSQEESTGILSVGKQNQCLECSMNESLEIDLESSEANCKIMAQCEEEINNFCGCKAGCQFPAYEDNPVSSGQLEEFPVLNTDIQGMNRSQEKQTWWEKALYSPLFPASECEECYTNAKGESGLEEYPDAKETPSNEERLLDFNRVSSVYEARCTGERDSGAKSDGFRGKMCSSASSTSEETGSEGGGEWVGPSEEELFSRTHL
B2: TSC1 (protein, UniProt Q92574 1-1164)
chain: MAQQANVGELLAMLDSPMLGVRDDVTAVFKENLNSDRGPMLVNTLVDYYLETSSQPALHILTTLQEPHDKHLLDRINEYVGKAATRLSILSLLGHVIRLQPSWKHKLSQAPLLPSLLKCLKMDTDVVVLTTGVLVLITMLPMIPQSGKQHLLDFFDIFGRLSSWCLKKPGHVAEVYLVHLHASVYALFHRLYGMYPCNFVSFLRSHYSMKENLETFEEVVKPMMEHVRIHPELVTGSKDHELDPRRWKRLETHDVVIECAKISLDPTEASYEDGYSVSHQISARFPHRSADVTTSPYADTQNSYGCATSTPYSTSRLMLLNMPGQLPQTLSSPSTRLITEPPQATLWSPSMVCGMTTPPTSPGNVPPDLSHPYSKVFGTTAGGKGTPLGTPATSPPPAPLCHSDDYVHISLPQATVTPPRKEERMDSARPCLHRQHHLLNDRGSEEPPGSKGSVTLSDLPGFLGDLASEEDSIEKDKEEAAISRELSEITTAEAEPVVPRGGFDSPFYRDSLPGSQRKTHSAASSSQGASVNPEPLHSSLDKLGPDTPKQAFTPIDLPCGSADESPAGDRECQTSLETSIFTPSPCKIPPPTRVGFGSGQPPPYDHLFEVALPKTAHHFVIRKTEELLKKAKGNTEEDGVPSTSPMEVLDRLIQQGADAHSKELNKLPLPSKSVDWTHFGGSPPSDEIRTLRDQLLLLHNQLLYERFKRQQHALRNRRLLRKVIKAAALEEHNAAMKDQLKLQEKDIQMWKVSLQKEQARYNQLQEQRDTMVTKLHSQIRQLQHDREEFYNQSQELQTKLEDCRNMIAELRIELKKANNKVCHTELLLSQVSQKLSNSESVQQQMEFLNRQLLVLGEVNELYLEQLQNKHSDTTKEVEMMKAAYRKELEKNRSHVLQQTQRLDTSQKRILELESHLAKKDHLLLEQKKYLEDVKLQARGQLQAAESRYEAQKRITQVFELEILDLYGRLEKDGLLKKLEEEKAEAAEAAEERLDCCNDGCSDSMVGHNEEASGHNGETKTPRPSSARGSSGSRGGGGSSSSSSELSTPEKPPHQRAGPFSSRWETTMGEASASIPTTVGSLPSSKSFLGMKARELFRNKSESQCDEDGMTSSLSESLKTELGKDLGVEAKIPLNLDGPHPSPPTPDSVGQLHIMDYNETHHEHS

Target: T1, FLAG-tagged DCAF7
Test: affinity purification with mass spectrometry

binding, binds:
CREBBP (from UniProt Q92793 1-2442)
B1
B2
